Data source: PubChem BioAssay AID1259424 (University of Nebraska Medical Center, 2018)

Aim: 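Find knockdowns that reproduce the expression shifts seen after KSR1 loss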 (primary screen)
System: human HCT116 colon cancer cells
Knock-down reagent: siRNA pool against human genes, 50 nM
Detection: 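Log2 levels of six mRNAs (branched-DNA multiplex), adjusted by two reference genes and the non-targeting median, then scored against the average KSR1 knockdown pattern as Pearson r and euclidean distance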
Scale: mean correlation with KSR1 profile: higher = expression change more like KSR1 knockdown; mean distance from KSR1 profile: higher = expression change less like KSR1 knockdown
In all, the deposit lists about 14,000 reagents; this is a random part of them. 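Higher correlation or smaller distance means closer resemblance to KSR1 loss; control wells, including KSR1 knockdowns, recur on many plates.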 Not all columns of the deposit are shown. Not given: the time to read-out.

The opening 2 records, to show the layout:
{"gene symbol": "ACKR3", "PubChem SID": "SID364001600", "mean correlation with KSR1 profile": 0.301, "mean distance from KSR1 profile": 3.14}
{"gene symbol": "CNGA4", "PubChem SID": "SID364005340", "mean correlation with KSR1 profile": -0.328, "mean distance from KSR1 profile": 3.12}

Main list, from the first entry:
{"gene symbol": "ACKR3", "PubChem SID": "SID364001600", "mean correlation with KSR1 profile": 0.301, "mean distance from KSR1 profile": 3.14}
{"gene symbol": "CNGA4", "PubChem SID": "SID364005340", "mean correlation with KSR1 profile": -0.328, "mean distance from KSR1 profile": 3.12}
{"gene symbol": "ZZEF1", "PubChem SID": "SID363999309", "mean correlation with KSR1 profile": -0.152, "mean distance from KSR1 profile": 2.59}
{"gene symbol": "TM6SF1", "PubChem SID": "SID364002610", "mean correlation with KSR1 profile": 0.0182, "mean distance from KSR1 profile": 1.35}
{"gene symbol": "TSN", "PubChem SID": "SID363995590", "mean correlation with KSR1 profile": 0.751, "mean distance from KSR1 profile": 1.26}
{"gene symbol": "PLAAT2", "PubChem SID": "SID364000607", "mean correlation with KSR1 profile": 0.213, "mean distance from KSR1 profile": 2.8}
{"gene symbol": "CEP135", "PubChem SID": "SID364003207", "mean correlation with KSR1 profile": 0.645, "mean distance from KSR1 profile": 2.55}
{"gene symbol": "SKAP1", "PubChem SID": "SID363994794", "mean correlation with KSR1 profile": -0.388, "mean distance from KSR1 profile": 2.78}
{"gene symbol": "TIGD5", "PubChem SID": "SID364004236", "mean correlation with KSR1 profile": 0.473, "mean distance from KSR1 profile": 1.3}
{"gene symbol": "ZMYM1", "PubChem SID": "SID364003045", "mean correlation with KSR1 profile": 0.436, "mean distance from KSR1 profile": 1.66}
{"gene symbol": "IGFBP4", "PubChem SID": "SID363992809", "mean correlation with KSR1 profile": -0.278, "mean distance from KSR1 profile": 1.75}
{"gene symbol": "SC5D", "PubChem SID": "SID363997672", "mean correlation with KSR1 profile": -0.471, "mean distance from KSR1 profile": 2.88}
{"gene symbol": "ADGRL4", "PubChem SID": "SID364005443", "mean correlation with KSR1 profile": 0.466, "mean distance from KSR1 profile": 2.05}
{"gene symbol": "UGP2", "PubChem SID": "SID363997530", "mean correlation with KSR1 profile": -0.367, "mean distance from KSR1 profile": 1.91}
{"gene symbol": "TNIP2", "PubChem SID": "SID364002783", "mean correlation with KSR1 profile": -0.205, "mean distance from KSR1 profile": 2.94}
{"gene symbol": "NUP88", "PubChem SID": "SID363993704", "mean correlation with KSR1 profile": -0.347, "mean distance from KSR1 profile": 2.69}
{"gene symbol": "FGF21", "PubChem SID": "SID364001412", "mean correlation with KSR1 profile": -0.308, "mean distance from KSR1 profile": 1.24}
{"gene symbol": "ERVMER34-1", "PubChem SID": "SID364002853", "mean correlation with KSR1 profile": 0.267, "mean distance from KSR1 profile": 2.75}
{"gene symbol": "LYRM1", "PubChem SID": "SID364001686", "mean correlation with KSR1 profile": 0.237, "mean distance from KSR1 profile": 1.92}
